Test results from US8809350B2, “Purine and pyrimidine CDK inhibitors and their use for the treatment of autoimmune diseases” (priority 2004, dated 2014).
Where two headings read alike, the source gives them in different places.

Legend:
tumour cell panels = test: In-house 72 hour cytotoxicity assays on tumour cell panels; format: cell-based

Row | SMILES | IC50 (PKC) | IC50 (tumour cell panels; 72 h, read-out: IC50 Average) | IC50 (tumour cell panels; PBMC, read-out: IC50 Used)
1 | CC[C@H](CO)Nc1nc(NCc2ccccc2)c2ncn(C(C)C)c2n1 [roscovitine, 2-[(1-ethyl-2-hydroxyethyl)amino]-6-benzylamine-9-isopropylpurine] | > 50 µM |  | 
2 | CCC(CO)Nc1nc(NCc2ccccc2)c2ncn(C(C)C)c2n1 (stereo not drawn) [Compound 2] |  | 16.4 µM | 16 µM
